# Data published in the supplement of paper PMC12067093, “Discovery and optimisation of a covalent ligand for TRIM25 and its application to targeted protein ubiquitination” (Chemical Science, 2025).
# Chains of the proteins cited; added tags and fusions are not shown. Lines headed by an entry give the natural chain unless they say otherwise; changes in a name come on top.
# UniProt O60841: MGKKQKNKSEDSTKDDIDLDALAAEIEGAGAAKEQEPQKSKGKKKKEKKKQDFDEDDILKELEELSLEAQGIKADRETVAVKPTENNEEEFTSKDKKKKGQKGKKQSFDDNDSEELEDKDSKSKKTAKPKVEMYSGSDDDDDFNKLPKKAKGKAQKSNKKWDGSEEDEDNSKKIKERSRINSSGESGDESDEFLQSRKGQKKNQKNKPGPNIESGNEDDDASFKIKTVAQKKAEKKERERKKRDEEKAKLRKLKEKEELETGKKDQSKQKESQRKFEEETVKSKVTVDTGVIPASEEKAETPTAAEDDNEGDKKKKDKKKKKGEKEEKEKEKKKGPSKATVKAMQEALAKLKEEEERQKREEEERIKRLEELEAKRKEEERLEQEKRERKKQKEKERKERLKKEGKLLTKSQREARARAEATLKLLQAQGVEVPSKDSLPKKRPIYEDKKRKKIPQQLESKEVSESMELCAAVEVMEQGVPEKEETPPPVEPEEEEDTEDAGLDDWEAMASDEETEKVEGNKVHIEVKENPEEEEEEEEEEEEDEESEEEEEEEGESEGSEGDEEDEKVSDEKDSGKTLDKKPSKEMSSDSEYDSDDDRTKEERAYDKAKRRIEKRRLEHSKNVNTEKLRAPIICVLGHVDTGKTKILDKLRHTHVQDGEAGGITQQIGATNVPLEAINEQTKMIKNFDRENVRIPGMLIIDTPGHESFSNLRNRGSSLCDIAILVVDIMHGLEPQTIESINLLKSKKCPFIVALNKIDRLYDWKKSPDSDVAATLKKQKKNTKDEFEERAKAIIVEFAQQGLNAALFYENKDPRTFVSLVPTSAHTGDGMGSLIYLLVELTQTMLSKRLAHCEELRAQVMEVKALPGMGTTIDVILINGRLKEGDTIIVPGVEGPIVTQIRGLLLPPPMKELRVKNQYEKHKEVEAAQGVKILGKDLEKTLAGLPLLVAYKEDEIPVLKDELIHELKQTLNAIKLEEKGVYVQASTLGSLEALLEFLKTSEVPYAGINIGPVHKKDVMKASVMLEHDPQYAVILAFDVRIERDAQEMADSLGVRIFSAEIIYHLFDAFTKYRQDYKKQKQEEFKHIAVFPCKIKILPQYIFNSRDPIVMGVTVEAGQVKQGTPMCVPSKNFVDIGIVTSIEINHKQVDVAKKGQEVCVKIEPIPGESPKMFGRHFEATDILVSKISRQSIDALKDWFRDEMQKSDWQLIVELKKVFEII
# UniProt Q13541: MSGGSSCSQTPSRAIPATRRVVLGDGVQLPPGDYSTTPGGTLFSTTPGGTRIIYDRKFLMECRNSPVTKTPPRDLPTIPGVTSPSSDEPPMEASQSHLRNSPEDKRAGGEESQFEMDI
# UniProt P42566: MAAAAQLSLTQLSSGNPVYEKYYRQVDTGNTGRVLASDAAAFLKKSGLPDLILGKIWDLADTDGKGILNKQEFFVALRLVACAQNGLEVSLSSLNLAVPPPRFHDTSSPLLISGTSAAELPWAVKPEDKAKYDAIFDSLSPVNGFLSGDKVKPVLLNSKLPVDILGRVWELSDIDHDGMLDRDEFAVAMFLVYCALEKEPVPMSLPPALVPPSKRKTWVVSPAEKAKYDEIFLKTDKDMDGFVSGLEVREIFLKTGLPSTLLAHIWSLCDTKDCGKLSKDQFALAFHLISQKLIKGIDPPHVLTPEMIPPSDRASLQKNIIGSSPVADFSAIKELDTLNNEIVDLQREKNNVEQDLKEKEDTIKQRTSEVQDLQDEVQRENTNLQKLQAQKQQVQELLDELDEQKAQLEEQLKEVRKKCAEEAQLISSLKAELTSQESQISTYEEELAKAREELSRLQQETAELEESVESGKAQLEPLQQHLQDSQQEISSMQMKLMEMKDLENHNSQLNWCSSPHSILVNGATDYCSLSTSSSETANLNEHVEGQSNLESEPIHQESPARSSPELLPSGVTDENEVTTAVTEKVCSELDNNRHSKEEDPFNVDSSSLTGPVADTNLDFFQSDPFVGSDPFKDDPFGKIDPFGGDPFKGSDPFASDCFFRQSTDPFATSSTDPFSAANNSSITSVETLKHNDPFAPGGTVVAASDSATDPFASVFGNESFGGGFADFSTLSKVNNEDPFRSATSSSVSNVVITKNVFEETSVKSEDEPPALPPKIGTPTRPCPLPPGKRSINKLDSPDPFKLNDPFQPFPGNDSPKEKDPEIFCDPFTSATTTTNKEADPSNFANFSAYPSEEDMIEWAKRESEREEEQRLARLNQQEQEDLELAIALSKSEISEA
# UniProt P08246: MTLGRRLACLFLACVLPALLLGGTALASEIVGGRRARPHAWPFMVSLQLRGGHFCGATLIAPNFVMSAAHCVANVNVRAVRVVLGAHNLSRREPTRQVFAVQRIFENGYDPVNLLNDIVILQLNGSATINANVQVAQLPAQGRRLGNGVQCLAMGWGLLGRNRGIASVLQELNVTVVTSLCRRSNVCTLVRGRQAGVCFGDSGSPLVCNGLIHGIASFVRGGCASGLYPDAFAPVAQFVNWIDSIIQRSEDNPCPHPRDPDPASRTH
# UniProt P07814: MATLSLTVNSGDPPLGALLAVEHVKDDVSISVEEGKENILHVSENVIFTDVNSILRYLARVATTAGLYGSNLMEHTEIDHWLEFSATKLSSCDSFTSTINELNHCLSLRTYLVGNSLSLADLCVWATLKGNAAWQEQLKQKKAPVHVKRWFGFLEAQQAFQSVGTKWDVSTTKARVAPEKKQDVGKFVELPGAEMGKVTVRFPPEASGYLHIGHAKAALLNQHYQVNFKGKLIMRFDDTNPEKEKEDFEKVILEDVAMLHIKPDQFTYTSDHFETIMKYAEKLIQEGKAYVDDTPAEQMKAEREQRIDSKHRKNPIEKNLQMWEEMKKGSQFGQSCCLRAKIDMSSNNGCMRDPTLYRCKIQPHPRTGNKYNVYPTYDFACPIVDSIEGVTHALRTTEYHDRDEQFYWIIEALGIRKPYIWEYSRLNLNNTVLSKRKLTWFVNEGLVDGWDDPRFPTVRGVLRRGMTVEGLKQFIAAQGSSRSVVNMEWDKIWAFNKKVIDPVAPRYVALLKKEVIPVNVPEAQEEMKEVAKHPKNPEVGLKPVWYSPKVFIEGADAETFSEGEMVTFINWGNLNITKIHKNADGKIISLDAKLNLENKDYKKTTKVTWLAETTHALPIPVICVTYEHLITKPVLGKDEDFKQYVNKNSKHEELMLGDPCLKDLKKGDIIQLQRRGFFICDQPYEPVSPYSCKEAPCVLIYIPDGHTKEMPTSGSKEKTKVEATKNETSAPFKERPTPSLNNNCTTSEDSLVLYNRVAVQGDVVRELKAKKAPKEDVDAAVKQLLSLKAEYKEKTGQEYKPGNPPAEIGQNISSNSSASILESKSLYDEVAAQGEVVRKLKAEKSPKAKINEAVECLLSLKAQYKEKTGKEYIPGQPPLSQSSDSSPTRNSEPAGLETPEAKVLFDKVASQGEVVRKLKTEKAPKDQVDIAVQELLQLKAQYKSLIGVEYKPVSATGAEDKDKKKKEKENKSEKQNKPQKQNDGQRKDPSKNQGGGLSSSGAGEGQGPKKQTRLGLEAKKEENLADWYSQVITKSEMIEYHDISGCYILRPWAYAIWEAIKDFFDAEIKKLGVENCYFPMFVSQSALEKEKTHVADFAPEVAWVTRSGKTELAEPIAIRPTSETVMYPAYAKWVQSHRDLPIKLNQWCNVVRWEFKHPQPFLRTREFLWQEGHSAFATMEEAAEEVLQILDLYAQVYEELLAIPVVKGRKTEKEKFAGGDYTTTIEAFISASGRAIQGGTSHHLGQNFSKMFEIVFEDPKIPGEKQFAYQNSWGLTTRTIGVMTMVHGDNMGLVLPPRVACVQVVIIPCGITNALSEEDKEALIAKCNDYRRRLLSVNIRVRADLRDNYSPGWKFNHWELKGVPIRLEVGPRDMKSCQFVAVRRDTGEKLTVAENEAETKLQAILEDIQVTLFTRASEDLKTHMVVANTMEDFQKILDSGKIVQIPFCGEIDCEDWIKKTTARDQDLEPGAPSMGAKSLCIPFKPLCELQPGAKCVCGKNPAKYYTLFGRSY
# UniProt Q13347, whole entry, looked up: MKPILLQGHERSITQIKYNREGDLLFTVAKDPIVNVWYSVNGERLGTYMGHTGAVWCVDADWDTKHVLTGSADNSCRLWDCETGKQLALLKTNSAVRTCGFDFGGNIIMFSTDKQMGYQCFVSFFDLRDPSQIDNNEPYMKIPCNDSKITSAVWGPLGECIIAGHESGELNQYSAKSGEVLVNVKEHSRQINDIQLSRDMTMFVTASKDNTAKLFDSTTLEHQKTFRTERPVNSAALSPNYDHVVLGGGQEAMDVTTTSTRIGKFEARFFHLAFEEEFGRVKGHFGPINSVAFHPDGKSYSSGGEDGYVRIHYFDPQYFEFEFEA
# UniProt Q6IA86: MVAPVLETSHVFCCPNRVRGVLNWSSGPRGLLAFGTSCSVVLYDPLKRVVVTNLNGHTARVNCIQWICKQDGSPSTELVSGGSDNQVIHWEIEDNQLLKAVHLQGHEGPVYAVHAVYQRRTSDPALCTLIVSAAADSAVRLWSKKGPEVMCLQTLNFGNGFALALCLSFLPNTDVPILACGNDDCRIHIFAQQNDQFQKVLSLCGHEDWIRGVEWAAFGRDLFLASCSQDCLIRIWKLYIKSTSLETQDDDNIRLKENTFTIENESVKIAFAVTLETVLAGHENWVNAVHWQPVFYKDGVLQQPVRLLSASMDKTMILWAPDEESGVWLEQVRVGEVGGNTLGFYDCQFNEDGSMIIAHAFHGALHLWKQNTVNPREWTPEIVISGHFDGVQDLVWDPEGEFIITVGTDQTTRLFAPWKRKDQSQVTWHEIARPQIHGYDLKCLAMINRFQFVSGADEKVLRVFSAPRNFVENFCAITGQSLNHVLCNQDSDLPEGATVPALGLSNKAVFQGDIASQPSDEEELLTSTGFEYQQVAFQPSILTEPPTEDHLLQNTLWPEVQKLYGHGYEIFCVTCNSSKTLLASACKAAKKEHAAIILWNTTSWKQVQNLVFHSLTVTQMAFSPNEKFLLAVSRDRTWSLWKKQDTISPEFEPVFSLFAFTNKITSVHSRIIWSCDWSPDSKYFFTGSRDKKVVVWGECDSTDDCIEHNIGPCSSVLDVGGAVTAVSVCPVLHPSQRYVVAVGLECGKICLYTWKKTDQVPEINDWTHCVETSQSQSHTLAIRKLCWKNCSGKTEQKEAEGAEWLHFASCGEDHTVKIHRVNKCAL
# UniProt O43402: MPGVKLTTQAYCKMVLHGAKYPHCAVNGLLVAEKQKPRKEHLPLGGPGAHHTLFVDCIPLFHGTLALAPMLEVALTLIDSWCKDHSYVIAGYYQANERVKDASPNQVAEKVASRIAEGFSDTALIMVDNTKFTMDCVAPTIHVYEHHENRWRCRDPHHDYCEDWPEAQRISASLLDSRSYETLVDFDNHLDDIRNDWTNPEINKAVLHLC
# UniProt P17813: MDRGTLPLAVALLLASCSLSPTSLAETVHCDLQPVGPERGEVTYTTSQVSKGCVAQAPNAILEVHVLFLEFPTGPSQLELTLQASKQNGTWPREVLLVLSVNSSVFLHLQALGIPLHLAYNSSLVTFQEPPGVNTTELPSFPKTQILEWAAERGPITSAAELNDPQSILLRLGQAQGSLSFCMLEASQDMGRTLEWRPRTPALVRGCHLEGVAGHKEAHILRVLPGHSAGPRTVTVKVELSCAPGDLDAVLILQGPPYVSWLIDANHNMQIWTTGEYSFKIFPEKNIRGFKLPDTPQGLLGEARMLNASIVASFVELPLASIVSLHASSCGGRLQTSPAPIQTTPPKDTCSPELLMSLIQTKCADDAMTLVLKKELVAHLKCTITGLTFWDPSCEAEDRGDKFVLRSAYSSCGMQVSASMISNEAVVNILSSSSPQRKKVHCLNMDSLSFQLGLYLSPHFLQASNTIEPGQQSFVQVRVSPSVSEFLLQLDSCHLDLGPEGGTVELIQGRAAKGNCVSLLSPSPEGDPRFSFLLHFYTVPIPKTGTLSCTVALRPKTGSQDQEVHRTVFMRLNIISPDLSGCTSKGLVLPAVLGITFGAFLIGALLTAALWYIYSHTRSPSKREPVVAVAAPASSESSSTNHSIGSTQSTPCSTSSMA
# UniProt P55010, whole entry, looked up: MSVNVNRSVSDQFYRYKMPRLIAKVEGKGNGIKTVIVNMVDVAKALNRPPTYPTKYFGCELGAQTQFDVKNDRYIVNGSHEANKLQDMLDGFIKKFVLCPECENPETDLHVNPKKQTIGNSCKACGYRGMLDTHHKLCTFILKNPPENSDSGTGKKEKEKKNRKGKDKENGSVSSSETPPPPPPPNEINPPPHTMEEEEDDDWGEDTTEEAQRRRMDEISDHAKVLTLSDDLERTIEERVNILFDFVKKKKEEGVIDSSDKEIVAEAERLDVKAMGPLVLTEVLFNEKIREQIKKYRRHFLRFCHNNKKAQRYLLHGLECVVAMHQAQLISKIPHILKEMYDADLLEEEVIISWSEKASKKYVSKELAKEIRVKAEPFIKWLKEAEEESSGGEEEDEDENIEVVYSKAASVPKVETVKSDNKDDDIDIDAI
# The list shows a part of the results.
# Compound: CC1Cc2ccccc2N1C(=O)C1CCCN(C1)C(=O)CCl (mixture of isomers) [TRIM25 ligand 11 (diastereomer mixture)]
# Assay: probe-labelled cysteine peptide fold change vs DMSO (competition) (log2 fold change); higher = less target engagement (more negative = stronger competition)
# Details: THP-1, incubation time: 4 h
# 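Note: competitive chemoproteomic profiling in live THP-1 cells with an iodoacetamide desthiobiotin (IA-DTB) probe, comparing probe-labelled peptide intensities in compound-treated cells against DMSO-treated controls.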
Target,probe-labelled cysteine peptide fold change (10 µM),probe-labelled cysteine peptide fold change (50 µM)
ENAH_Q8N8S7_7_SEQSICQAR (UniProt Q8N8S7),0.28,0.538
EIF4G2_P78344_253_DMGEDLECLCQIMR (UniProt P78344),-0.0586,-0.0256
EIF5B_O60841_635_LRAPIICVLGHVDTGK (UniProt O60841),-0.0665,0.00731
EIF4EBP1_Q13541_62_FLMECR (UniProt Q13541),0.0288,0.00825
ENDOV_Q8N8Q3_140_GFGVACHLGVLTDLPCVGVAK (UniProt Q8N8Q3),0.103,0.108
EPS15_P42566_82_LVACAQNGLEVSLSSLNLAVPPPR (UniProt P42566),0.123,-0.00747
EML3_Q32P44_604_GDLAQGFSPVIQGHTDELWGLCTHPSQNR (UniProt Q32P44),0.00256,-0.467
ELANE_P08246_55_GGHFCGATLIAPNFVMSAAHCVANVNVR (UniProt P08246),-0.0847,0.148
EIF4G3_O43432_301_CELSSPR (UniProt O43432),-0.0526,-0.2
EPRS_P07814_680_RGFFICDQPYEPVSPYSCK (UniProt P07814),-0.163,-0.134
ERBIN_Q96RT1_464_AQVAFECDEDK (UniProt Q96RT1),0.442,0.102
ELANE_P08246_151_LGNGVQCLAMGWGLLGR (UniProt P08246),-0.0888,-0.107
EIF4B_P23588_457_EEDCHSPTSKPPKPDQPLK (UniProt P23588),0.117,-0.106
EIF3I_Q13347_57_LGTYMGHTGAVWCVDADWDTK (UniProt Q13347),0.0312,-0.0132
EMC2_Q15006_192_AAFCLEELMMTNPHNHLYCQQYAEVK (UniProt Q15006),0.0434,0.161
EIF3I_Q13347_120_QMGYQCFVSFFDLRDPSQIDNNEPYMK (UniProt Q13347),-0.281,-0.122
ELP1_O95163_744_EAFECMR (UniProt O95163),-0.186,0.141
ELP2_Q6IA86_127_RTSDPALCTLIVSAAADSAVR (UniProt Q6IA86),0.0716,-0.057
ELP1_O95163_1025_ALSAFLTCGNWK (UniProt O95163),-0.195,0.0614

# A few values from the entries so far:
# probe-labelled cysteine peptide fold change (10 µM), ELP1_O95163_1025_ALSAFLTCGNWK (UniProt O95163) reads -0.195
# probe-labelled cysteine peptide fold change (10 µM), EIF4EBP1_Q13541_62_FLMECR (UniProt Q13541) reads 0.0288
# probe-labelled cysteine peptide fold change (50 µM), EIF5B_O60841_635_LRAPIICVLGHVDTGK (UniProt O60841) reads 0.00731

# Later entries

Target,probe-labelled cysteine peptide fold change (10 µM),probe-labelled cysteine peptide fold change (50 µM)
EMC10_Q5UCC4_49_EGEACGTVGLLLEHSFEIDDSANFR (UniProt Q5UCC4),-0.235,-0.0512
EPRS_P07814_1453_IVQIPFCGEIDCEDWIKK (UniProt P07814),-0.301,-0.148
EP300_Q09472_382_NVLNHMTHCQSGK (UniProt Q09472),-0.0028,-0.126
EMC8_O43402_161_CRDPHHDYCEDWPEAQR (UniProt O43402),0.044,0.143
EP300_Q09472_1621_LIAGPAANSLPPIVDPDPLIPCDLMDGR (UniProt Q09472),0.519,-0.508
ENOPH1_Q9UHY7_52_EYLQTHWEEEECQQDVSLLR (UniProt Q9UHY7),0.193,-0.0562
EIPR1_Q53HC9_95_VLTCAAVWR (UniProt Q53HC9),0.109,0.137
EIF5B_O60841_853_LAHCEELR (UniProt O60841),-0.000337,-0.0257
ENG_P17813_516_GNCVSLLSPSPEGDPR (UniProt P17813),-0.00348,-0.204
EIF5_P55010_99+102_FVLCPECENPETDLHVNPK (UniProt P55010),-0.125,-0.0157
ENOSF1_Q7L5Y1_330_ALQFLQIDSCR (UniProt Q7L5Y1),-0.0652,0.0321
EIF3M_Q7L2H7_125_YTVYCSLIK (UniProt Q7L2H7),-0.0302,0.306
EPS15_P42566_269_TGLPSTLLAHIWSLCDTK (UniProt P42566),-0.0429,-0.101
EIF4A1_P60842_134_VVMALGDYMGASCHACIGGTNVR (UniProt P60842),0.0707,0.00912
EIF4A3_P38919_137_GLLALGDYMNVQCHACIGGTNVGEDIRK (UniProt P38919),0.0579,0.19
ENG_P17813_207_GCHLEGVAGHK (UniProt P17813),0.011,0.173
ELP2_Q6IA86_14_VAPVLETSHVFCCPNR (UniProt Q6IA86),0.0335,0.118
EML2_O95834_203_CSNEAVLVATFHPTDPTVLITCGK (UniProt O95834),0.0124,-0.169
